The record followed here is the supplement of paper PMC10849652.

The chains behind the UniProt entries cited, without tags or fusion partners. Where a name states a change or a piece, a line headed by the entry shows the natural chain unless it says otherwise.
UniProt Q8IWJ2: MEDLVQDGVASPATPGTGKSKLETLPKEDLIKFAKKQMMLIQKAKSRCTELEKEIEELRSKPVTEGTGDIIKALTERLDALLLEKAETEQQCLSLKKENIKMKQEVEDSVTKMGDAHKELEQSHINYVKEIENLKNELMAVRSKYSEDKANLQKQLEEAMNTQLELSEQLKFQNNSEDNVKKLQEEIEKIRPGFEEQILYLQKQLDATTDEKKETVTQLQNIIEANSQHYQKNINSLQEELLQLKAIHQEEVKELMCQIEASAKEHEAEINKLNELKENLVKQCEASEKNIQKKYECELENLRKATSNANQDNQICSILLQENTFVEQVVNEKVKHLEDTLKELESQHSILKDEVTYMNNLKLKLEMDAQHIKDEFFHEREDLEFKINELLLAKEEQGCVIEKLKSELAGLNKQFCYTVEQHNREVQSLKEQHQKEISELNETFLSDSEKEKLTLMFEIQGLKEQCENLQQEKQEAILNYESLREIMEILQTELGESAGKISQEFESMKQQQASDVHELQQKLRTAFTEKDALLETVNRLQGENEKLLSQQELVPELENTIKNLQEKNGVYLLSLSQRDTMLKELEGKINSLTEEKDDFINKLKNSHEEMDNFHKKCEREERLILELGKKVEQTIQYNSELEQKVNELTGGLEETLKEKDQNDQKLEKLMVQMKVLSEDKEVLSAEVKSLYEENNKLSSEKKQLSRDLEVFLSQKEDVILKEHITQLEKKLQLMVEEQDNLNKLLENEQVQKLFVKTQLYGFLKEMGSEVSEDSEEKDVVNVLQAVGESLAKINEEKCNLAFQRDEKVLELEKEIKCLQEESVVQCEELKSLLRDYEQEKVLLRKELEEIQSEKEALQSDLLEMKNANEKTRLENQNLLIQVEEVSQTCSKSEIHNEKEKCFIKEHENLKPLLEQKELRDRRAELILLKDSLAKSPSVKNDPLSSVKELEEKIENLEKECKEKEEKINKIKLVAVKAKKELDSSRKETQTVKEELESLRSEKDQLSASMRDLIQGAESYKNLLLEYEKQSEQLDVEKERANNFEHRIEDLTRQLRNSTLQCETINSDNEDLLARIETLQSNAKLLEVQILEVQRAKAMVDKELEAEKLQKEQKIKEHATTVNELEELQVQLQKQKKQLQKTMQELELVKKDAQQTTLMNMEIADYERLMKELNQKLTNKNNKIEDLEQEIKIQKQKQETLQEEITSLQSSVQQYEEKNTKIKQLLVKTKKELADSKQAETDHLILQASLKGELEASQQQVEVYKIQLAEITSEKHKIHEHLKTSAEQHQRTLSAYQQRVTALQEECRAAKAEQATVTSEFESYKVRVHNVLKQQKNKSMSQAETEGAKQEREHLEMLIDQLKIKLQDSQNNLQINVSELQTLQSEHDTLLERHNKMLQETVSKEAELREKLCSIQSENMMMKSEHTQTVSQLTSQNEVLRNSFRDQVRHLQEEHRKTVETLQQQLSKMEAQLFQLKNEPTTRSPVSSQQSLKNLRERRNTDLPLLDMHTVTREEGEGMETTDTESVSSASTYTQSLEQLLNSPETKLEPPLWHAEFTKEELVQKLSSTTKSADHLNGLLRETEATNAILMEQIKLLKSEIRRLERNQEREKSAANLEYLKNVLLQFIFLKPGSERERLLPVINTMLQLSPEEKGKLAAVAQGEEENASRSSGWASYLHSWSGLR
UniProt Q14697: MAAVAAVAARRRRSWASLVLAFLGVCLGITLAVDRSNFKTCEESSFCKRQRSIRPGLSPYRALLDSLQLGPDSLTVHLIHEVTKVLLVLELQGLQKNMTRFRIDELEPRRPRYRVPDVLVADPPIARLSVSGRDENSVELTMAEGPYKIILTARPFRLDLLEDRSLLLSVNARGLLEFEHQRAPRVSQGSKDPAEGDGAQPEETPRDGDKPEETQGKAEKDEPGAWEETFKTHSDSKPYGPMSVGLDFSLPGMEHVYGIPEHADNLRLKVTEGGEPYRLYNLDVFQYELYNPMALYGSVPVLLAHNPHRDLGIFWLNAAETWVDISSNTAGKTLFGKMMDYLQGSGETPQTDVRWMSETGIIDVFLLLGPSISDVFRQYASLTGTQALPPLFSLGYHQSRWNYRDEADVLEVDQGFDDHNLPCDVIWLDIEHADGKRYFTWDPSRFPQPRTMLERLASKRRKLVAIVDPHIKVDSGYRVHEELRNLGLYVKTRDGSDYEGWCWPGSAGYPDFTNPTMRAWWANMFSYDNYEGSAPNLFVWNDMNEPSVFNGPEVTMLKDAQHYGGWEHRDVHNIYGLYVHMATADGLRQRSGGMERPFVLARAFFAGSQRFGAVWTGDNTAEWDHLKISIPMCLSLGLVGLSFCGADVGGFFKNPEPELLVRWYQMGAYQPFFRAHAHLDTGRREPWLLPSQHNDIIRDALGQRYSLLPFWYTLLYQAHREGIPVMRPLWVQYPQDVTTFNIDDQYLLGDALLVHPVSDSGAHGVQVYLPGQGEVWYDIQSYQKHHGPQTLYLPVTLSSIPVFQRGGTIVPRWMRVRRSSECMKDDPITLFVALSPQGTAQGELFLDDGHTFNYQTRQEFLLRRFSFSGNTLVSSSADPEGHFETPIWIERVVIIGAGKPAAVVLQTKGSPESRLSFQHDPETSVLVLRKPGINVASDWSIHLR
UniProt Q10471: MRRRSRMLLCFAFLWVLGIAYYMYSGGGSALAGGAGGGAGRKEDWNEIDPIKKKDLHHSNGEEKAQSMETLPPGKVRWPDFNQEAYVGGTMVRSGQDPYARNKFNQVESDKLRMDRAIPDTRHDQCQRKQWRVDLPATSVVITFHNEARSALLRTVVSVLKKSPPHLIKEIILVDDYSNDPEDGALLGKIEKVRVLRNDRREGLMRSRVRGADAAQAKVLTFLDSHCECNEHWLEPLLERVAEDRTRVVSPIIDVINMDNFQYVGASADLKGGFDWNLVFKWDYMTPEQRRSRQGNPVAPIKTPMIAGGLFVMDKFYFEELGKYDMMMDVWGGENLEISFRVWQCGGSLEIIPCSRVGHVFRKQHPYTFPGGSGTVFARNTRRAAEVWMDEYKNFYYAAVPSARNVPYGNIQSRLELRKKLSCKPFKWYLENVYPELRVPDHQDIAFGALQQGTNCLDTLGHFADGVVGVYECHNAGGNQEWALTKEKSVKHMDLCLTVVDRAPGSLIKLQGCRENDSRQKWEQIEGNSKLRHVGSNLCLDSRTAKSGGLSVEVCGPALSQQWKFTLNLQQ
UniProt P04062: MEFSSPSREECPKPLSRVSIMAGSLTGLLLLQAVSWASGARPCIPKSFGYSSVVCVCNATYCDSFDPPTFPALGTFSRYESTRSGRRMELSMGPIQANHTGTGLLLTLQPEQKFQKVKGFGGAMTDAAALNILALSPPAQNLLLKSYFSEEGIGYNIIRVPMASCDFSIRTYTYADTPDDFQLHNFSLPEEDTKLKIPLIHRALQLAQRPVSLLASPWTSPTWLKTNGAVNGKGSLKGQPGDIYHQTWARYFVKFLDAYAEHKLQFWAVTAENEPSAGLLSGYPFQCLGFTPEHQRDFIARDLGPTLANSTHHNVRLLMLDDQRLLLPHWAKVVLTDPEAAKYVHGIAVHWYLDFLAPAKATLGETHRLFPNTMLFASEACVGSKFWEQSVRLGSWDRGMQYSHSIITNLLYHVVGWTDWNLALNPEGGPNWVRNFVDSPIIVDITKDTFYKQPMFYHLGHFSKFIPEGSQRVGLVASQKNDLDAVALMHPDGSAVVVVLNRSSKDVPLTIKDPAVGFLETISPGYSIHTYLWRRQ
UniProt Q96CN9: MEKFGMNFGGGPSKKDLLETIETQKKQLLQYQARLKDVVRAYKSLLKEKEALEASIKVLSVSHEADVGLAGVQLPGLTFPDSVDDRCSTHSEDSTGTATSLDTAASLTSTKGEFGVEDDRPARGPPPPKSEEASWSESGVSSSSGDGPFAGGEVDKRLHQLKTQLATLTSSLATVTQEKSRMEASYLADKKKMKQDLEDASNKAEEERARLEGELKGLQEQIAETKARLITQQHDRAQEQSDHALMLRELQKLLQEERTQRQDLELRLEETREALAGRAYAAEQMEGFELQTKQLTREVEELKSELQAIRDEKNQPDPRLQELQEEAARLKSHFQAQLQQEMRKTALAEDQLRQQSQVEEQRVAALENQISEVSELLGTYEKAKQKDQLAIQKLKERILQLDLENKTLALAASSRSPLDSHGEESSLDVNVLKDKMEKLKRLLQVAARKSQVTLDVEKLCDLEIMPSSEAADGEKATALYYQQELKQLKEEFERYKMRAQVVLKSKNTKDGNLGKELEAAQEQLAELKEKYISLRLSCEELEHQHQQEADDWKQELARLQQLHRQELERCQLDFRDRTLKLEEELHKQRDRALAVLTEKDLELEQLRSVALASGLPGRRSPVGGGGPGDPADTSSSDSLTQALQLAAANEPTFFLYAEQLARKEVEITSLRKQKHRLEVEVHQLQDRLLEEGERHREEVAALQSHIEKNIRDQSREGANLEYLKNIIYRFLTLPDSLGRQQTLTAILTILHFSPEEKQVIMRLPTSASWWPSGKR
UniProt Q06547, whole entry, looked up: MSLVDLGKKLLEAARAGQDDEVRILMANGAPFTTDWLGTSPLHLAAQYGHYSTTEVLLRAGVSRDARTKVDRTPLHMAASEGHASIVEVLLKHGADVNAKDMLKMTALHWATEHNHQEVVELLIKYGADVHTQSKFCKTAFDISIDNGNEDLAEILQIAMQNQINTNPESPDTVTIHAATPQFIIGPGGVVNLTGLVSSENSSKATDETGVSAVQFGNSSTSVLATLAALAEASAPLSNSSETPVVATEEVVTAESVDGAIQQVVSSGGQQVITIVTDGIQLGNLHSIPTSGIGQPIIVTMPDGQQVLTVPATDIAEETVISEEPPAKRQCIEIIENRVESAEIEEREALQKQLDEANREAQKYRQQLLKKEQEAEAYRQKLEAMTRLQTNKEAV
UniProt Q10472: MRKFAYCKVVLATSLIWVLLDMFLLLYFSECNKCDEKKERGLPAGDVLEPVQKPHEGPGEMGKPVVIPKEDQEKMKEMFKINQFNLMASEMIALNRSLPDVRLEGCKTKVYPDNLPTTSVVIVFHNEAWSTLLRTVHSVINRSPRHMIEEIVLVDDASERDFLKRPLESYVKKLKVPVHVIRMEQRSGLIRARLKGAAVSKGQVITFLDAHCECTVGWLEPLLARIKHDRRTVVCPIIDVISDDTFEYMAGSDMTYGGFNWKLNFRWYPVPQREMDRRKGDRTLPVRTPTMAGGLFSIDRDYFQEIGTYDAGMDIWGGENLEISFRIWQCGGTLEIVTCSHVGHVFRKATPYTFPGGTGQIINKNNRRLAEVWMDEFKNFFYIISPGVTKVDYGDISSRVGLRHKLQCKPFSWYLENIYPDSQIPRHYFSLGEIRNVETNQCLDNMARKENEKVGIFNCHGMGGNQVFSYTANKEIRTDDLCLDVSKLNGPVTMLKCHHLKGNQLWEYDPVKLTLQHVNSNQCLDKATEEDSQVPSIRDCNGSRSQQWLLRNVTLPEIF
UniProt P55789: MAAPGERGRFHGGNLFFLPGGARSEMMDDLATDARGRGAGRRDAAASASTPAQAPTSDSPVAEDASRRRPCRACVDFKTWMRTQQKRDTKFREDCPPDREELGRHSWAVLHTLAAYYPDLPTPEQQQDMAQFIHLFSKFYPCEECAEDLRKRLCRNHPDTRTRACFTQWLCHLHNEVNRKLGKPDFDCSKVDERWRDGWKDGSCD
UniProt P23434: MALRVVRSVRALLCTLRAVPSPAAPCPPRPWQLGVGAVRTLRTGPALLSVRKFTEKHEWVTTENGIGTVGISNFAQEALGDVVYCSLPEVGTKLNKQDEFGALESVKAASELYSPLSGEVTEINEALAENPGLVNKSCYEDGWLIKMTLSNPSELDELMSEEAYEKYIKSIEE
UniProt P41250: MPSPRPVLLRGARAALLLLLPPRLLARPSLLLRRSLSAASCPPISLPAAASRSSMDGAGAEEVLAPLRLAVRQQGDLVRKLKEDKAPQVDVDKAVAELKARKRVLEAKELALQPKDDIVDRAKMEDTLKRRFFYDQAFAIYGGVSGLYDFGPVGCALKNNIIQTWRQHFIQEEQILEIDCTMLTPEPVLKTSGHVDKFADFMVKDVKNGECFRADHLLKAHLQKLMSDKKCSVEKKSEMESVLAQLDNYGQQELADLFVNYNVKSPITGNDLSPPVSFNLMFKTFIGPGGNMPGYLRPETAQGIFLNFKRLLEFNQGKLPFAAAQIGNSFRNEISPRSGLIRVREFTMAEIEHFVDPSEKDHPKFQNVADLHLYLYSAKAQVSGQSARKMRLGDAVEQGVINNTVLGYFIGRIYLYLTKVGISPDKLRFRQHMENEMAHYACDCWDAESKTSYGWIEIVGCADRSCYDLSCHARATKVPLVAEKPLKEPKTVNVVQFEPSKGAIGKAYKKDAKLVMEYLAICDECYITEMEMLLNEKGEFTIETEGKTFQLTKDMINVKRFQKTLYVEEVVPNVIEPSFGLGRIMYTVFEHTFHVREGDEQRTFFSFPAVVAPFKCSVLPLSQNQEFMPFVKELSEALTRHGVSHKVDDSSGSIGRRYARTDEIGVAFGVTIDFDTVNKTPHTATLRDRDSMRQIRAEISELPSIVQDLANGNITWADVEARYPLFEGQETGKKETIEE

This is one part of the list.

Compound in one test: CC(C)(O)CC(=O)NCCn1ccc2ncnc(Nc3ccc(Oc4cccc(C(F)(F)F)c4)c(Cl)c3)c21
The experiment in a line: log2 fold change, soluble protein after heating vs DMSO (PISA); higher = thermal stabilisation; K562 lysate, 10 uM; active = over 0.2 and 3.5 SD of the protein, either way, in both replicates (recomputed). The method, boiled down:
(§1)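 K562 pellets were dounce-homogenised in PBS pH 7.4 containing 1 mM MgCl2, and the crude extract, at 1 mg/mL protein, was exposed to 10 μM compound for 30 min. Aliquots were heated for 3 min across 48°C-58°C, pooled, brought to 0.5% NP-40 at 4°C and spun at 21,000xg for 90 min, with the supernatant taken as soluble protein. TMTpro 16plex LC-MS/MS with equalised channel sums quantified that protein. Values are log-two fold changes in thermal stability relative to solvent controls, taken from duplicates.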
FTSJ1 (UniProt Q9UET6): the log2 fold change is inactive: 0.094.

As to GCC2 (UniProt Q8IWJ2), the log2 fold change was inactive: 0.01.

With GALNT7 (UniProt Q86SF2), the log2 fold change was inactive: -0.056.

As for GEMIN2 (UniProt O14893), the log2 fold change was inactive: -0.11.

For GANAB isoform 2 (UniProt Q14697), the log2 fold change was inactive: 0.002.

On to GALNT5 (UniProt Q7Z7M9), for which the log2 fold change is inactive: -0.042.

On to GALNT2 (UniProt Q10471), for which the log2 fold change is inactive: 0.022.

Turning to G3BP2 (UniProt Q9UN86), the log2 fold change was inactive: -0.011.

On to GBA (UniProt P04062), for which the log2 fold change was inactive: 0.005.

For the target FUCA1 (UniProt P04066), the log2 fold change is inactive: -0.09.

As to GATAD2B (UniProt Q8WXI9), the log2 fold change is inactive: -0.008.

Consider FREM2 (UniProt Q5SZK8), for which the log2 fold change is inactive: -0.042.

For FRRS1 (UniProt Q6ZNA5), the log2 fold change was inactive: -0.05.

For the target GCC1 (UniProt Q96CN9), the log2 fold change was inactive: -0.032.

For FXN (UniProt Q16595), the log2 fold change is inactive: -0.01.

Turning to GABPB1 (UniProt Q06547), the log2 fold change is inactive: 0.014.

On to FPGT (UniProt O14772), for which the log2 fold change is inactive: 0.011.

As for GALM (UniProt Q96C23), the log2 fold change was inactive: -0.036.

For GALNT1 (UniProt Q10472), the log2 fold change is inactive: -0.021.

As to GAPDH (UniProt P04406), the log2 fold change was inactive: 0.02.

With GFER (UniProt P55789), the log2 fold change was inactive: -0.035.

In the case of GFPT1 (UniProt Q06210), the log2 fold change was inactive: -0.024.

In the case of GART (UniProt P22102), the log2 fold change was inactive: 0.036.

GALNT12 (UniProt Q8IXK2): the log2 fold change is inactive: 0.016.

Regarding GFM1 (UniProt Q96RP9), the log2 fold change is inactive: -0.019.

Regarding FYB1 isoform 3 (UniProt O15117), the log2 fold change was inactive: -0.008.

On to GABARAP (UniProt O95166), for which the log2 fold change is inactive: 0.089.

Consider GCSH (UniProt P23434), for which the log2 fold change is inactive: -0.081.

For the target GARS1 (UniProt P41250), the log2 fold change was inactive: -0.014.

As for GEMIN6 (UniProt Q8WXD5), the log2 fold change is inactive: -0.026.

In the case of GALNS (UniProt P34059), the log2 fold change was inactive: -0.015.

As for GALE (UniProt Q14376), the log2 fold change is inactive: -0.003.

On to FSCN1 (UniProt Q16658), for which the log2 fold change was inactive: -0.007.

Compound in the next test: CC(C)C1=C2N=C(C=C(N2N=C1)NCC3=CC=CC=C3)NCCCCCCN
The description is as above. The essentials:
as §1
Consider FTSJ1 (UniProt Q9UET6), for which the log2 fold change was inactive: -0.054.

Turning to GCC2 (UniProt Q8IWJ2), the log2 fold change was inactive: 0.013.

Turning to GALNT7 (UniProt Q86SF2), the log2 fold change is inactive: -0.026.

GEMIN2 (UniProt O14893): the log2 fold change was inactive: 0.033.

For GANAB isoform 2 (UniProt Q14697), the log2 fold change was inactive: -0.016.

As to GALNT5 (UniProt Q7Z7M9), the log2 fold change was inactive: -0.017.

As to GALNT2 (UniProt Q10471), the log2 fold change is inactive: -0.005.

As to G3BP2 (UniProt Q9UN86), the log2 fold change is inactive: 0.053.

As for GBA (UniProt P04062), the log2 fold change was inactive: 0.028.

As to FUCA1 (UniProt P04066), the log2 fold change is inactive: -0.036.

As to GATAD2B (UniProt Q8WXI9), the log2 fold change is inactive: 0.019.

As to FREM2 (UniProt Q5SZK8), the log2 fold change is inactive: -0.024.

As to FRRS1 (UniProt Q6ZNA5), the log2 fold change is inactive: -0.077.

Turning to GCC1 (UniProt Q96CN9), the log2 fold change was inactive: -0.013.

On to FXN (UniProt Q16595), for which the log2 fold change is inactive: 0.008.

In the case of GABPB1 (UniProt Q06547), the log2 fold change was inactive: 0.

Take FPGT (UniProt O14772): the log2 fold change is inactive: 0.014.

In the case of GALM (UniProt Q96C23), the log2 fold change is inactive: 0.005.

GALNT1 (UniProt Q10472): the log2 fold change was inactive: -0.071.

For the target GAPDH (UniProt P04406), the log2 fold change was inactive: 0.008.

With GFER (UniProt P55789), the log2 fold change is inactive: -0.079.

As to GFPT1 (UniProt Q06210), the log2 fold change was inactive: 0.022.

As for GART (UniProt P22102), the log2 fold change was inactive: 0.013.

On to GALNT12 (UniProt Q8IXK2), for which the log2 fold change was inactive: 0.035.

Regarding GFM1 (UniProt Q96RP9), the log2 fold change was inactive: 0.031.

With FYB1 isoform 3 (UniProt O15117), the log2 fold change was inactive: 0.005.

Consider GABARAP (UniProt O95166), for which the log2 fold change is inactive: -0.015.

As for GCSH (UniProt P23434), the log2 fold change is inactive: 0.039.

For the target GARS1 (UniProt P41250), the log2 fold change was inactive: 0.006.

GEMIN6 (UniProt Q8WXD5): the log2 fold change was inactive: -0.008.

GALNS (UniProt P34059): the log2 fold change is inactive: 0.

With GALE (UniProt Q14376), the log2 fold change was inactive: 0.005.

Regarding FSCN1 (UniProt Q16658), the log2 fold change was inactive: -0.015.

Compound in the next test: CC1=C(C(CC(=O)N1)C2=CC=C(C=C2)C(F)(F)F)C(=O)NC3=C(C=C4C(=C3)C=NN4)F
The description is as above. The method, boiled down: as §1
For FTSJ1 (UniProt Q9UET6), the log2 fold change was inactive: 0.011.

Regarding GCC2 (UniProt Q8IWJ2), the log2 fold change is inactive: -0.014.

Regarding GALNT7 (UniProt Q86SF2), the log2 fold change was inactive: 0.036.

In the case of GEMIN2 (UniProt O14893), the log2 fold change is inactive: -0.014.

GANAB isoform 2 (UniProt Q14697): the log2 fold change was inactive: 0.001.

On to GALNT5 (UniProt Q7Z7M9), for which the log2 fold change was inactive: 0.031.

Take GALNT2 (UniProt Q10471): the log2 fold change is inactive: 0.015.

Take G3BP2 (UniProt Q9UN86): the log2 fold change is inactive: 0.026.

With GBA (UniProt P04062), the log2 fold change is inactive: 0.042.

For FUCA1 (UniProt P04066), the log2 fold change is inactive: -0.051.

For the target GATAD2B (UniProt Q8WXI9), the log2 fold change was inactive: 0.049.

For FREM2 (UniProt Q5SZK8), the log2 fold change was inactive: -0.06.

FRRS1 (UniProt Q6ZNA5): the log2 fold change was inactive: 0.138.

Regarding GCC1 (UniProt Q96CN9), the log2 fold change is inactive: -0.026.

As for FXN (UniProt Q16595), the log2 fold change was inactive: -0.067.

In the case of GABPB1 (UniProt Q06547), the log2 fold change is inactive: 0.013.

Regarding FPGT (UniProt O14772), the log2 fold change is inactive: 0.009.

GALM (UniProt Q96C23): the log2 fold change is inactive: 0.

GALNT1 (UniProt Q10472): the log2 fold change was inactive: -0.024.

As for GAPDH (UniProt P04406), the log2 fold change is inactive: -0.01.

As for GFER (UniProt P55789), the log2 fold change was inactive: -0.11.

On to GFPT1 (UniProt Q06210), for which the log2 fold change is inactive: -0.015.

Regarding GART (UniProt P22102), the log2 fold change is inactive: -0.014.

In the case of GALNT12 (UniProt Q8IXK2), the log2 fold change is inactive: 0.02.

On to GFM1 (UniProt Q96RP9), for which the log2 fold change was inactive: -0.011.

Take FYB1 isoform 3 (UniProt O15117): the log2 fold change was inactive: -0.017.

Turning to GABARAP (UniProt O95166), the log2 fold change is inactive: -0.049.

GCSH (UniProt P23434): the log2 fold change is inactive: -0.023.

On to GARS1 (UniProt P41250), for which the log2 fold change is inactive: -0.049.

For the target GEMIN6 (UniProt Q8WXD5), the log2 fold change is inactive: 0.008.

As for GALNS (UniProt P34059), the log2 fold change was inactive: -0.007.

As to GALE (UniProt Q14376), the log2 fold change is inactive: 0.009.

Take FSCN1 (UniProt Q16658): the log2 fold change is inactive: -0.024.
